# The supplement of paper PMC8920030
# The source gives many values for each of these; only a part stands here. Where a SMILES comes first, the peptide text is derived from it. Bridges are numbered along the chain shown (N, C = ends). [ ]: non-standard residue; d: D form. The star is where a group is joined. Heptanoyl(5-Me) = CCC(C)CCCC(=O)*; Dab = NCC[C@H](N)C(=O)O
# Columns and labels:
# Conditions in all cases: growth mode: biofilm, 24 h; exposure time: 24 h
# colistin [1] = compound: T1, CCC(C)CCCC(=O)N[C@@H](CCN)C(=O)N[C@H](C(=O)N[C@@H](CCN)C(=O)N[C@H]1CCNC(=O)[C@H]([C@@H](C)O)NC(=O)[C@H](CCN)NC(=O)[C@H](CCN)NC(=O)[C@H](CC(C)C)NC(=O)[C@@H](CC(C)C)NC(=O)[C@H](CCN)NC1=O)[C@@H](C)O [colistin]; test: minimum concentration of killing, 1-log CFU reduction of biofilm (MCK90); higher = more biofilm tolerance
# Description: (§1)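 Clinical P. aeruginosa isolates were grown as static biofilms for 24 h at 37 °C in LB in half-area 96-well plates, then exposed for 24 h to colistin at 1, 4, 16, 64, 256 or […]. Surviving CFU were counted by spotting serial dilutions. MCK is the lowest tested concentration giving the stated log reduction in CFU versus an untreated control; '>1024' means the reduction was not reached at the top dose, and 1 is the lowest dose tested (≤1).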
# colistin [2] = compound: T1, colistin; test: minimum concentration of killing, 2-log CFU reduction of biofilm (MCK99); higher = more biofilm tolerance
# Description: as §1
# tobramycin [3] = compound: T2, NC[C@H]1O[C@H](O[C@H]2[C@H](O)[C@@H](O[C@H]3O[C@H](CO)[C@@H](O)[C@H](N)[C@H]3O)[C@H](N)C[C@@H]2N)[C@H](N)C[C@@H]1O [tobramycin]; test: minimum concentration of killing, 4-log CFU reduction of biofilm (MCK99.99); higher = more biofilm tolerance
# Description: as §1, with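 “tobramycin” for “colistin”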
# tobramycin [4] = compound: T2, tobramycin; test: minimum concentration of killing, 1-log CFU reduction of biofilm (MCK90); higher = more biofilm tolerance
# Description: as §1, with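 “tobramycin” for “colistin”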
# tobramycin [5] = compound: T2, tobramycin; test: minimum concentration of killing, 2-log CFU reduction of biofilm (MCK99); higher = more biofilm tolerance
# Description: as §1, with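 “tobramycin” for “colistin”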
# colistin [6] = compound: T1, colistin; test: minimum concentration eradicating biofilm below detection limit (MCK-E); higher = more biofilm tolerance
# Description: as §1
# tobramycin [7] = compound: T2, tobramycin; test: as above
# Description: as §1, with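 “tobramycin” for “colistin”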
# colistin [8] = compound: T1, colistin; test: minimum concentration of killing, 4-log CFU reduction of biofilm (MCK99.99); higher = more biofilm tolerance
# Description: as §1
Test System,minimum concentration of killing (colistin [1]) [µg/mL],minimum concentration of killing (colistin [2]) [µg/mL],minimum concentration of killing (tobramycin [3]) [µg/mL],minimum concentration of killing (tobramycin [4]) [µg/mL],minimum concentration of killing (tobramycin [5]) [µg/mL],minimum concentration eradicating biofilm below detection limit (colistin [6]) [µg/mL],minimum concentration eradicating biofilm below detection limit (tobramycin [7]) [µg/mL],minimum concentration of killing (colistin [8]) [µg/mL]
Pseudomonas aeruginosa clinical isolate F2394,≤ 1,64,> 1020,1020,> 1020,256,> 1020,256
Pseudomonas aeruginosa clinical isolate F2805,64,256,1020,64,256,256,> 1020,256
Pseudomonas aeruginosa clinical isolate F2856,16,64,> 1020,1020,> 1020,256,> 1020,256
Pseudomonas aeruginosa clinical isolate F2942,256,256,> 1020,256,> 1020,256,> 1020,256
Pseudomonas aeruginosa clinical isolate M70563004,64,256,16,4,16,256,64,256
Pseudomonas aeruginosa clinical isolate M70564993,256,256,256,4,64,256,256,256
Pseudomonas aeruginosa clinical isolate M70565254,64,256,64,≤ 1,4,256,256,256
Pseudomonas aeruginosa clinical isolate M70565897,256,256,256,16,64,256,256,256
Pseudomonas aeruginosa clinical isolate M70604538,256,1020,16,4,4,1020,256,1020
Pseudomonas aeruginosa clinical isolate M70608424,64,256,64,4,16,1020,256,1020
Pseudomonas aeruginosa clinical isolate M70640096,256,256,16,16,16,256,64,256
Pseudomonas aeruginosa clinical isolate M70641593,256,256,1020,64,64,256,1020,256
Pseudomonas aeruginosa clinical isolate M70646050,256,256,64,≤ 1,4,256,64,256
Pseudomonas aeruginosa clinical isolate M70646077,16,16,> 1020,≤ 1,≤ 1,1020,> 1020,1020
Pseudomonas aeruginosa clinical isolate M70647319,4,256,256,4,256,256,> 1020,256
Pseudomonas aeruginosa clinical isolate M70649365,256,256,256,16,16,256,1020,256
Pseudomonas aeruginosa clinical isolate M70652746,256,256,256,256,256,256,256,256
Pseudomonas aeruginosa clinical isolate M70656672,64,256,16,≤ 1,≤ 1,256,64,256
Pseudomonas aeruginosa clinical isolate M70663247,256,256,64,4,4,256,256,256
Pseudomonas aeruginosa clinical isolate MD1037,64,256,256,≤ 1,4,256,256,256
Pseudomonas aeruginosa clinical isolate MD3496,64,256,256,16,256,256,256,256
Pseudomonas aeruginosa clinical isolate MD4301,64,64,256,16,256,256,256,256
Pseudomonas aeruginosa clinical isolate MD6136,256,256,256,256,256,256,1020,256
